Laboratory results: patent US20240325529A1, “MEDICAMENT FOR TREATMENT AND/OR PREVENTION OF CANCER” (TORAY INDUSTRIES, INC., priority 2021, published 2024)
These are yes or no findings as the source states them, for the method shown. Some binding calls cover weakened binding; strength is not graded here.

Biological target: T1, human CAPRIN-1 protein on cell membrane surfaces of human cancer cells (human) (UniProt Q14444)
T1 sequence (looked up): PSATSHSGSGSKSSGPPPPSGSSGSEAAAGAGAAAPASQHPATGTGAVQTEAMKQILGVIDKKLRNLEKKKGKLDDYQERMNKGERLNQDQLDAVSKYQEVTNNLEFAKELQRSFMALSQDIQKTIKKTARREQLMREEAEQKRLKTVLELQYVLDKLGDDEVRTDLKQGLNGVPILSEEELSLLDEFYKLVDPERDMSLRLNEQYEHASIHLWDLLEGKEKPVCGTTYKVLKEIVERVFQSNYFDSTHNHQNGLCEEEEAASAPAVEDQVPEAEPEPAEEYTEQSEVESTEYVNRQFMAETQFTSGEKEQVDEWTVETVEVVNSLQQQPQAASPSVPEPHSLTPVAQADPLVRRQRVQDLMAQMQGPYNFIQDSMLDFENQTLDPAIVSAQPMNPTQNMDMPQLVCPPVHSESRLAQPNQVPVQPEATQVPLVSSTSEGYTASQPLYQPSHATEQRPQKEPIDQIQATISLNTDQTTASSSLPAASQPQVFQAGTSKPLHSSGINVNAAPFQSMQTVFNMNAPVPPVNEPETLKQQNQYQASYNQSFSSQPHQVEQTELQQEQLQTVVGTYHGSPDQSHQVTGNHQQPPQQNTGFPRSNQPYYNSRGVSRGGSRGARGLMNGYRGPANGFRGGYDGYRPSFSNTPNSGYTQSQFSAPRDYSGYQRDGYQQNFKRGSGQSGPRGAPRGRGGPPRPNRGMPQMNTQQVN
Assay: flow cytometry on cancer cells expressing CAPRIN-1

B1: anti-CAPRIN-1 antibody (z) (antibody, V domains shown)
VH: GPDLVKPGASVKISCKASGYSFTAYYMHWVKQSHGKSLEWIGRVNPNNGGTTYNQKFKGKAILTVDKSSSTAYMELRSLTFEDSAVYYCARRIYYGYFDYWGQGTTVTVSS
VL: AFFAVSLGQRATISCKASQSVDYDGDSYMNWYQQKPGQPPKLLIYVASNLESGVPARFSGSGSGTDFTLNIHPVEEEDAATYYCQQSNEDPYTFGGGTKLEIKQ
With B1 as the binder, how does the binding read?
Its binding is “binds”.
